Measured values published in article PMC5560531.
These are yes or no findings as the source states them, for the method shown. In cells and extracts the contact can be indirect. Some entries that bind do so weakly or less than the wild type.

Sequences of proteins named here, by UniProt entry; tags and fusion partners are left off.
UniProt Q15003: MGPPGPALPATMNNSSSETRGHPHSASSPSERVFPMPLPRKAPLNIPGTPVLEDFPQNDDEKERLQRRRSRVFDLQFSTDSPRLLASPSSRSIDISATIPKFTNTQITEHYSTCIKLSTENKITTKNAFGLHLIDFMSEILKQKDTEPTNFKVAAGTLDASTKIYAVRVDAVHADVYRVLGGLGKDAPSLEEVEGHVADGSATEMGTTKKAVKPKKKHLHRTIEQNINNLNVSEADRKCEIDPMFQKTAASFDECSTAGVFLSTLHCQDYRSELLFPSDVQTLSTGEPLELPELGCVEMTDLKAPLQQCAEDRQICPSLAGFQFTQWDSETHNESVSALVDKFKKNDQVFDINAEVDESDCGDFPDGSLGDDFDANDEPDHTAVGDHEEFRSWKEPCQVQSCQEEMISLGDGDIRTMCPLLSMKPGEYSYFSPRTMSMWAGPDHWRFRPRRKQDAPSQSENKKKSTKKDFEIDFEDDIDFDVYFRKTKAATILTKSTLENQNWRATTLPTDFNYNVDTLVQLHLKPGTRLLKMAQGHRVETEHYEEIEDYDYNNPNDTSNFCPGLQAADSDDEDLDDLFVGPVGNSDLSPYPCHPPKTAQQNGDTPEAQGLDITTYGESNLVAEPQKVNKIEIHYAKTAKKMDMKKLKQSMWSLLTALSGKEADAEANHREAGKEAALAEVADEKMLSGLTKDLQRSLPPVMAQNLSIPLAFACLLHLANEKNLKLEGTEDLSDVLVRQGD

How the values were obtained:
[1] = molecular target: T1, Kinesin family member 4 (KIF4), endogenous in mitotic HeLa cells (human (endogenous in HeLa)) (UniProt O95239); test: co-IP; KIF4 immunoprecipitated (antibody, protein A sepharose, overnight 4°C, washes with CSK3 buffer, 250 mM NaCl) from the chromatin-bound protein fraction (MNase-released) of nocodazole-arrested mitotic HeLa cells; also from cells treated without or with 4 μM ZM447439; western blot
T1 sequence: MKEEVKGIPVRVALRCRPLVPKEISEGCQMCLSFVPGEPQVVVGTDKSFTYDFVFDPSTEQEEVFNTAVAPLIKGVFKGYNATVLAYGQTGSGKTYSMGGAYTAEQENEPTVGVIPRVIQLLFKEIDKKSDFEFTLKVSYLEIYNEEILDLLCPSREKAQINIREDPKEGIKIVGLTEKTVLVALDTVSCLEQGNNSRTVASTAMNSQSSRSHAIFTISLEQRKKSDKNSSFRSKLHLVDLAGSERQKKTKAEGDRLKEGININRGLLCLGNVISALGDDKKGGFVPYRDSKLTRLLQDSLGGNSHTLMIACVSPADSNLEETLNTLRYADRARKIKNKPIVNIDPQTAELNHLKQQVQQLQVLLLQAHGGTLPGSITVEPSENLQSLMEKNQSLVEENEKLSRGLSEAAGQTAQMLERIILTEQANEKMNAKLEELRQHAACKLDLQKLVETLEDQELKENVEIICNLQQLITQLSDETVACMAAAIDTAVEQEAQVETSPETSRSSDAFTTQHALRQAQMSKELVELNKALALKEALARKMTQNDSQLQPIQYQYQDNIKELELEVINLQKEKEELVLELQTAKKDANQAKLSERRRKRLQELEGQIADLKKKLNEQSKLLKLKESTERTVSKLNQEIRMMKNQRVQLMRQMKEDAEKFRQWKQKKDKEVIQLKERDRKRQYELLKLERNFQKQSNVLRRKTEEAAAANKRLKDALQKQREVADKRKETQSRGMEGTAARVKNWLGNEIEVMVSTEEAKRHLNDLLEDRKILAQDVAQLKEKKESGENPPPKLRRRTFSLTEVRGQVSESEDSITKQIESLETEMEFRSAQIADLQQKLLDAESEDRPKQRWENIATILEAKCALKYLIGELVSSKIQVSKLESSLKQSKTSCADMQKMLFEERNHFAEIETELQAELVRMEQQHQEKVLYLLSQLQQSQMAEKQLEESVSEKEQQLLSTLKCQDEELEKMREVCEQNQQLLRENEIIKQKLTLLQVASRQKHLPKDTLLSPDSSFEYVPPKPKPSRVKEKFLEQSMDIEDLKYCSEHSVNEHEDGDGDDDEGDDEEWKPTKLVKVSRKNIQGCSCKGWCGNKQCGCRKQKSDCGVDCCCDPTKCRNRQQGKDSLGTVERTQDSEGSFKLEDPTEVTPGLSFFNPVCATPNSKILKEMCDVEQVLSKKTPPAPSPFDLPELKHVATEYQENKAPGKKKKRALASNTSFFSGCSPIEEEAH

[2] = molecular target: T1, Kinesin family member 4 (KIF4), endogenous in mitotic HeLa cells (human (endogenous in HeLa)); test: condition: only in the chromatin-unbound (cytoplasmic) fraction; co-IP; KIF4 immunoprecipitated from the chromatin-unbound (cytoplasmic) protein fraction of nocodazole-arrested mitotic HeLa cells; western blot

binding [1]: binds | binding [2]: no binding
Substance: hCAP-H, non-SMC subunit of condensin I, endogenous in mitotic HeLa cells (from UniProt Q15003 1-741)
